Results from PubChem BioAssay AID540276 (National Center for Advancing Translational Sciences (NCATS), 2011).
Screen size: about 300,000 compounds; about 5,400 (1.8%) were called active. Inconclusive means that the source gave no clear call. Such entries were picked first, then a sample of the others. The call rests on the fitted dose curve; tested in HEK293 cells. Where the call is inconclusive, the potency comes from a doubtful curve fit.

Assay: qHTS for inhibitors of binding or entry into cells for Marburg Virus
Conditions: Marburg virus pseudotyped entry inhibition, cell reporter; activity change, negative = inhibition: at 37.8 µM (top of the series) unless noted
On the % scale 0 is the no-effect control and ±100 the full control effect; potency means the concentration at half of the fitted maximal effect.

SMILES	Potency	activity change, negative = inhibition
COc1ccccc1C=C1SC(=S)NC1=O	inconclusive: 0.708 µM [activator, partial curve, poor fit]	
CC(Sc1nnnn1C1CCCCC1)C(=O)O (stereo not drawn)	inconclusive: 7.08 µM [activator, full curve, poor fit]	
CCCCCCCC[n+]1cccc(C(=O)N(CC)CC)c1		inactive: 10.6%
COc1ccc(-c2nc(CSCC(=O)N3CCN(c4ccccc4F)CC3)c(C)o2)cc1	inconclusive: 22.4 µM [inhibitor, single point]	
O=C(Nc1ccc(N2CCOCC2)cc1)c1ccc([N+](=O)[O-])o1	inconclusive: 15.8 µM [inhibitor, single point]	
COC(=O)CSc1nc(N)nc(C)c1Br	inconclusive: 35.5 µM [activator, single point]	
COc1ccc(CNc2nc(NCc3ccc(OC)c(OC)c3)n(C(=O)c3cccs3)n2)cc1OC	inconclusive: 29.1 µM [inhibitor, single point]	
O=C(CCc1ccccc1Cl)Nc1cc(S(=O)(=O)N2CCOCC2)ccc1N1CCCC1		inactive: -23.7% [at 46.1 µM]
C=CCN1c2ccccc2[C@]23C[C@@H](C(=O)OC)N(C(=O)Nc4ccccc4F)C2=NC(C(=O)OC)=C(C(=O)OC)[C@H]13		inactive: 2.89% [at 14.2 µM]
O=C(CCS(=O)(=O)c1ccc(Br)s1)Nc1cc(C(F)(F)F)cc(C(F)(F)F)c1	inconclusive: 35.5 µM [inhibitor, single point]	
CC(C)[C@H](NC(=O)c1ccc(C(C)(C)C)cc1)C(=O)Nc1nnc(C2CC2)s1	inconclusive: 1 µM [inhibitor, partial curve, poor fit]	
COc1ccc(-c2cc(C(=O)NC(Cc3c[nH]c4ccccc34)C(=O)O)c(C)o2)cc1OC (stereo not drawn)	inconclusive: 18.4 µM [activator, partial curve, poor fit]	
O=C(Nc1nnc(-c2cccs2)s1)c1cccc(F)c1	inconclusive: 4.47 µM [activator, single point]	
CC1CC(C)(C)N(C(=O)CSc2ccc(-c3ccc(F)cc3)nn2)c2ccccc21 (stereo not drawn)	inconclusive: 20.6 µM [inhibitor, partial curve, poor fit]	
CN(CC(=O)Nc1cccc(F)c1)C(=O)c1ccc(COc2ccccc2)o1	inconclusive: 10 µM [activator, partial curve, poor fit]	
O=C(CSc1nc2ccsc2c(=O)n1Cc1ccc(C(=O)O)cc1)NCc1ccco1	inactive	
Cc1cccc(NC(=S)NC(C)CCc2ccccc2)c1 (stereo not drawn)	inconclusive: 35.5 µM [inhibitor, single point]	
O=c1c2ccccc2sc2nc(CCl)nn12	inconclusive: 0.112 µM [inhibitor, full curve, poor fit]	
COc1cccc(-c2nc(-c3ccccn3)no2)c1	active: 2.31 µM	
O=C(Cn1c(=O)[nH]n(-c2ccccc2)c1=O)N1CCCc2ccccc21	inconclusive: 29.1 µM [activator, single point]	
CC=C(CC)C1(CCC)C(=O)NC(=S)NC1=O	inconclusive: 1.26 µM [activator, full curve, poor fit]	
C[C@@H](C(=O)N(C)C)N(C#N)c1nc(N(C)C)nc(N(C)C)n1	inconclusive: 0.562 µM [activator, full curve, poor fit]	
CN(C)S(=O)(=O)c1cccc(NC(=O)CSc2cccc3cccnc23)c1	inconclusive: 15.8 µM [inhibitor, single point]	

Complete entries as entered above:
O=C(Cn1c(=O)[nH]n(-c2ccccc2)c1=O)N1CCCc2ccccc21 is listed with Potency: inconclusive: 29.1 µM [activator, single point]
O=C(Nc1nnc(-c2cccs2)s1)c1cccc(F)c1 is listed with Potency: inconclusive: 4.47 µM [activator, single point]
O=C(Nc1ccc(N2CCOCC2)cc1)c1ccc([N+](=O)[O-])o1 is listed with Potency: inconclusive: 15.8 µM [inhibitor, single point]
COc1ccc(-c2nc(CSCC(=O)N3CCN(c4ccccc4F)CC3)c(C)o2)cc1 is listed with Potency: inconclusive: 22.4 µM [inhibitor, single point]

Next results follow.

SMILES	Potency	activity change, negative = inhibition
CCOC(=O)c1ccc(-n2ccnc2)c(NC(=O)c2ccc(C(C)(C)C)cc2)c1	inconclusive: 8.2 µM [inhibitor, single point]	
NS(=O)(=O)c1cccc(NC(=O)Cc2ccc(Cl)c(Cl)c2)c1	inconclusive: 2.24 µM [inhibitor, partial curve, poor fit]	
COc1ccc2nc(NC(=O)c3nc(SCc4cccc(C)c4)ncc3Cl)sc2c1		inactive: -24.2% [at 46.1 µM]
CC1Cn2c(nnc2C23CC4CC(CC(C4)C2)C3)S1 (stereo not drawn)		inactive: 1.31%
O=C(NNc1nc(-c2ccccc2)cs1)c1ccccc1	inconclusive: 15.8 µM [inhibitor, single point]	
O=C(CNC(=O)c1ccccc1)N/N=C/c1ccc([N+](=O)[O-])s1	inconclusive: 15.8 µM [inhibitor, single point]	
O=C(CN1CCCC1)Nc1ccc(Oc2ccc(NC(=O)CN3CCCC3)cc2)cc1	active: 2.06 µM	
C[C@H](NC(=O)c1ccco1)C(=O)Nc1ccc(C#N)cc1		inactive: 13.8% [at 46.1 µM]
O=C(C1CCN(C2CCN(Cc3ccc4c(c3)CCO4)CC2)CC1)N1CCCC1	active: 4.47 µM	
CC(=O)c1cc(CC(=O)N2CCc3c([nH]c4ccccc34)C2c2ccccn2)cs1 (stereo not drawn)	inconclusive: 35.5 µM [inhibitor, single point]	
COc1ccc(CCNC(=O)COC(=O)CSc2ccc([N+](=O)[O-])cc2)cc1OC		inconclusive: 20.8% [activator]
O=C(c1ccc(NS(=O)(=O)c2cccs2)cc1)N1CCOCC1		inactive: 24.7%
OC(c1cccnc1)c1cccs1 (stereo not drawn)	inactive	
CCCN1C2CCCC1CC(NC(=O)Nc1cccc(C(C)=O)c1)C2 (stereo not drawn)		inactive: 1.68%
CCOc1ccc(NC(=O)Cn2c(=O)n(Cc3ccccc3)c(=O)c3c4c(sc32)CN(C(C)=O)CC4)cc1		inactive: -27.1% [at 46.1 µM]
O=C(O)CCCN1C(=O)C2C3c4ccccc4C(c4ccccc43)[C@@H]2C1=O (stereo partly drawn)	inconclusive: 3.55 µM [inhibitor, single point]	
O=C(c1ccco1)N1CCN(c2ncnc3c(-c4ccccc4)nsc23)CC1	inconclusive: 4.61 µM [activator, single point]	
CCOc1ccccc1NC(=O)c1nn(-c2ccc(OC)cc2)c(=O)c2c1c1ccccc1n2C	inconclusive: 6.31 µM [inhibitor, single point]	
CCCC(=O)Nc1ccc2c(c1)nc(CN1CCN(C(=O)OCC)CC1)n2C		inactive: -27.9% [at 46.1 µM]
O=C1CCN(S(=O)(=O)c2ccc(Cl)cc2)N1	inconclusive: 6.51 µM [activator, single point]	
O=C(c1cccc([N+](=O)[O-])c1)N1CCN(CCc2ccncc2)CC1		inactive: 10.6% [at 46.1 µM]
Cc1cc2cc(CCNS(=O)(=O)c3ccc(F)cc3)c(=O)[nH]c2cc1C	inconclusive: 35.5 µM [inhibitor, single point]	
CC1=CC(C)(C)n2c(O)c(N=NC(N)=S)c3cc(C)cc1c32		inactive: 14.4%

SMILES	Potency	activity change, negative = inhibition
O=[N+]([O-])c1ccc(NC(=S)NCCc2ccc(F)cc2)cc1	inconclusive: 0.0891 µM [inhibitor, full curve, poor fit]	
Cc1ccc(-c2cc(C(=O)O)c3sc(N4CCCCC4)nc3n2)cc1	inconclusive: 6.31 µM [activator, partial curve, poor fit]	
CC12CCC(=O)N1c1c(sc3nc(N4CCOCC4)c4c(c13)CCCC4)C(=O)N2 (stereo not drawn)		inactive: 1.68%
Cc1cc(Br)ccc1OCCNCc1ccccc1	inconclusive: 35.5 µM [inhibitor, single point]	
CS(=O)(=O)N1CCN(c2ccccc2NC(=O)CSc2ccc(Cl)cc2)CC1	inconclusive: 10 µM [inhibitor, partial curve, poor fit]	
CCOC(=O)C1NN=C(C(=O)c2ccccc2)C1c1ccc(Cl)cc1 (stereo not drawn)	inconclusive: 0.562 µM [inhibitor, full curve, poor fit]	
O=C1CC(C(=O)Nc2ccccc2)N=C(N2CCOCC2)N1 (stereo not drawn)	inconclusive: 0.517 µM [inhibitor, full curve, poor fit]	
Cc1cc(NC(=O)CCc2ccccc2)c([N+](=O)[O-])cc1C	inconclusive: 3.98 µM [activator, single point]	
CCc1ccc(CN2CCC(C(=O)Nc3ccc(Oc4ccccc4)nc3)CC2)o1	inconclusive: 14.1 µM [inhibitor, partial curve, poor fit]	
O=C(c1ccccc1)c1ccc(OCCCCN2CCCCC2)cc1	inconclusive: 12.6 µM [inhibitor, partial curve, poor fit]	
Cc1ccc(C(=O)OCC(=O)N2c3ccccc3NC(=O)C2(C)C)cc1S(=O)(=O)N1CCCCC1	inconclusive: 8.91 µM [inhibitor, single point]	
CNc1nc(Oc2ccc(=O)[nH]n2)nc(N2CCOCC2)n1	inconclusive: 5.62 µM [inhibitor, single point]	
COCCNC(=O)c1c(NC(=O)c2ccco2)n(Cc2ccccc2)c2nc3ccccc3nc12		inactive: -20.3%
COc1cc(C(=O)NCc2nnc(SCC(=O)Nc3nc4ccc(C)cc4s3)o2)cc(OC)c1OC	inconclusive: 6.31 µM [activator, single point]	
Cc1cc(-n2c(SCc3ccccc3F)nc3n[nH]c(C)c3c2=N)ccc1Cl	inconclusive: 12.6 µM [inhibitor, single point]	
CC(C)c1cccc(C(C)C)c1NC(=O)COC(=O)C1CCC1		inactive: -19.3% [at 46.1 µM]
COc1cc(/C=N\NC(=O)OC(C)(C)C)ccc1OC(=O)c1ccco1		inactive: 14.7% [at 46.1 µM]
CC(C)CNC(=O)NC1C(NC(=O)NCC(C)C)N(C)C(=O)N1C (stereo not drawn)	inconclusive: 0.794 µM [activator, full curve, poor fit]	
CC(=O)Nc1ccc(N/C=C/C(=O)C(C)(C)C)cc1		inactive: 6.2%
[O-]/C(=C(\C(=S)Nc1ccc(SC(F)F)cc1)[n+]1cccc(CO)c1)c1ccc(Cl)s1		inactive: 29.2% [at 46.1 µM]
COc1ccc(CCN2C(=O)CC(Nc3ccc(N4CCOCC4)cc3)C2=O)cc1OC (stereo not drawn)	inconclusive: 1.26 µM [inhibitor, single point]	
O=C(C/C=N/OCc1ccc(Cl)cc1Cl)c1ccccc1		inactive: -10.6%
